Data taken from PMC12006399, “RNase1-driven ALK-activation is an oncogenic driver and therapeutic target in non-small cell lung cancer” (Signal Transduction and Targeted Therapy, 2025).
These are yes or no findings as the source states them, for the method shown. In cells and extracts the contact can be indirect. Some results given as binding are weak or reduced against the parent protein; the word gives no strength. For some of these results: Tags and fused reporters may be left off the sequences shown. Blank lines part the entries; values can stand above or below the molecule they belong to.

Amino acid sequences for entries named in this document (tags omitted). Residues count along the entry.
UniProt Q9UM73, residues 19-1620: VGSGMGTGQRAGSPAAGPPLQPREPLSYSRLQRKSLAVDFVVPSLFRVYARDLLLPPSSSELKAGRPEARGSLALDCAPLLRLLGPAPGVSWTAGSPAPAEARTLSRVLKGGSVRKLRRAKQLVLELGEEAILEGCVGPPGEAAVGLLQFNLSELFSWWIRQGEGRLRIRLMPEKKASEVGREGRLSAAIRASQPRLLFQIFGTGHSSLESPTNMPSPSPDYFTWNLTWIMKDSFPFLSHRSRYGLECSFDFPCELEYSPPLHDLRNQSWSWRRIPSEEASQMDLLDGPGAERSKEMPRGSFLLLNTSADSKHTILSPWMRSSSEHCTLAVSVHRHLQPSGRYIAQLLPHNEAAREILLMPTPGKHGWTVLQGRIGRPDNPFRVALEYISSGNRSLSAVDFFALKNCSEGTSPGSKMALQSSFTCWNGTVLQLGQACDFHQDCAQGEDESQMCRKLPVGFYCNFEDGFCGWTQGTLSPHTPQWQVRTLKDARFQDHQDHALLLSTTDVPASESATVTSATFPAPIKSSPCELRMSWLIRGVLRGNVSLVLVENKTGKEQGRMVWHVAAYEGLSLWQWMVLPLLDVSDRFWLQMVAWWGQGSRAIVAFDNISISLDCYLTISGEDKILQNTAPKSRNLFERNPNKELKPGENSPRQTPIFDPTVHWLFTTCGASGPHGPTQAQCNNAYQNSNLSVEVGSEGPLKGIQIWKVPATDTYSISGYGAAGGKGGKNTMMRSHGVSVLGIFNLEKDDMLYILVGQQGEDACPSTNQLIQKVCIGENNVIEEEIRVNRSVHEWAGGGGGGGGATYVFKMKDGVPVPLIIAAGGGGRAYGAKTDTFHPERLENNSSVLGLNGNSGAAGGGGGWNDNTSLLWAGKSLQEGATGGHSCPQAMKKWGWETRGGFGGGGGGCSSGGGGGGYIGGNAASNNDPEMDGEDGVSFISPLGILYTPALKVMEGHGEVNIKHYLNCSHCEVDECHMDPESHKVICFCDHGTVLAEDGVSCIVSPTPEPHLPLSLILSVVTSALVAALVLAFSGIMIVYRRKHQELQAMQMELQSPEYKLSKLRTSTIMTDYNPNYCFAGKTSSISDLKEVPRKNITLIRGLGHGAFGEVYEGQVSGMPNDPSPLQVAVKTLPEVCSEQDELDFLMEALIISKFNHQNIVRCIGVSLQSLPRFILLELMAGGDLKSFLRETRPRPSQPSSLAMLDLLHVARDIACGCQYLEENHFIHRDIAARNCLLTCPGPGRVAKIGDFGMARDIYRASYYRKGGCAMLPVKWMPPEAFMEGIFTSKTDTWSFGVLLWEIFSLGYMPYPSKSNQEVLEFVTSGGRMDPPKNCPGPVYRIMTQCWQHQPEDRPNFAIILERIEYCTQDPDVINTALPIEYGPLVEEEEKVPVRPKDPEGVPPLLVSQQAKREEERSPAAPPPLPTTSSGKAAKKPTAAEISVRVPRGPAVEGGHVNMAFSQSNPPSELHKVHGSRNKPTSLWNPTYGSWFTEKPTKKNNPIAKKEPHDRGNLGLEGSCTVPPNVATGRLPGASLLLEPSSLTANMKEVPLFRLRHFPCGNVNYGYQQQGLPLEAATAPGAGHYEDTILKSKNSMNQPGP

Columns and labels:
[1] = biological target: T1, recombinantly purified 6x N-terminal His-tagged RNase1 (human) (UniProt P07998); experiment: pull-down; 10 µg of each purified N-terminal His-tagged RNase incubated with H1299 lysate, Ni-His beads pull down, Western blot; only the target purified
T1 sequence: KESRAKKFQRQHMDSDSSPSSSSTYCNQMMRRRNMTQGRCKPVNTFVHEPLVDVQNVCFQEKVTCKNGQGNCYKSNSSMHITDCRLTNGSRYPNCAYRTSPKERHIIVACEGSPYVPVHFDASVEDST

Myc-tagged ALK = Myc-tagged ALK (UniProt Q9UM73); experiment: co-IP; HeLa cells transfected with Myc-tagged ALK and C-terminal Flag-tagged RNase1; lysates; RNase1 detected with the Flag antibody
[2] = biological target: ALK in the co-IP of Fig. 1i (UniProt Q9UM73); experiment: co-IP; HEK293T cells transfected with wild-type or catalytic-deficient RNase1 plasmid; Western blotting
[3] = biological target: endogenous wild-type ALK in H1299 human lung cancer cells (human (endogenous in H1299)) (UniProt Q9UM73); experiment: proximity ligation; Duolink In Situ Red kit on fixed H1299 cells with or without RNase1 expression; ALK and RNase1 antibodies

B1: C-terminal Flag-tagged RNase1 (ligand, UniProt P07998 29-156)
chain: KESRAKKFQRQHMDSDSSPSSSSTYCNQMMRRRNMTQGRCKPVNTFVHEPLVDVQNVCFQEKVTCKNGQGNCYKSNSSMHITDCRLTNGSRYPNCAYRTSPKERHIIVACEGSPYVPVHFDASVEDST
- binding (Myc-tagged ALK): binds

B3: RNase1 expressed in H1299 cells (ligand, UniProt P07998 29-156)
chain: KESRAKKFQRQHMDSDSSPSSSSTYCNQMMRRRNMTQGRCKPVNTFVHEPLVDVQNVCFQEKVTCKNGQGNCYKSNSSMHITDCRLTNGSRYPNCAYRTSPKERHIIVACEGSPYVPVHFDASVEDST
- binding [3]: binds

The next lines start with the values.

- binding [1]: binds
Molecule: endogenous wild-type ALK in H1299 human lung cancer cells (from UniProt Q9UM73 19-1620) (receptor)

- binding [2]: binds
B2: wild-type (WT) RNase1 expressed from a plasmid (Fig. 1i) (ligand, UniProt P07998 29-156)
chain: KESRAKKFQRQHMDSDSSPSSSSTYCNQMMRRRNMTQGRCKPVNTFVHEPLVDVQNVCFQEKVTCKNGQGNCYKSNSSMHITDCRLTNGSRYPNCAYRTSPKERHIIVACEGSPYVPVHFDASVEDST
